# Screening data

From PubChem BioAssay record AID504749 (NCATS, 2011).

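A panel of P. falciparum strains inside erythrocytes is exposed to compounds for three days, then a DNA-binding dye reports the amount of parasite DNA. Each compound was titrated across a series from about 0.000037 to 29 µM. The number is the fitted AC50, the concentration giving a half-maximal change in signal; a lower value means higher potency, whether the curve shows a decrease or an increase. Calls follow the curve class and fit quality: every row here is inconclusive, covering signal-raising curves and weak, poorly fitted, partial or highest-dose-only inhibition curves.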

Values are in µM. All entries here are filed as inconclusive. These entries are mostly ones the record files as inconclusive; other results of the assay are not listed here. Potencies fitted to partial, single-point or poorly fitting curves are rough.

| compound | setting | potency (µM) | curve |
|---|---|---|---|
| `CCCCCCCCCCCCOCCOCCOCCOCCOCCOCCOCCOCCOCCO` | CP185 | 12.59 | inhibitor, single point |
| `CCCCCCCCCCCCOCCOCCOCCOCCOCCOCCOCCOCCOCCO` | GB4 | 19.01 | inhibitor, partial curve, poor fit |
| `CCCCCCCCCCCCOCCOCCOCCOCCOCCOCCOCCOCCOCCO` | TAB113 | 7.08 | inhibitor, partial curve |
| `CCCCCCCCCCCCOCCOCCOCCOCCOCCOCCOCCOCCOCCO` | PC15 | 15.85 | inhibitor, single point |
| `CCCCCCCCCCCCOCCOCCOCCOCCOCCOCCOCCOCCOCCO` | CP217 | 11.22 | inhibitor, single point |
| `CCCCCCCCCCCCOCCOCCOCCOCCOCCOCCOCCOCCOCCO` | CP265 | 10 | inhibitor, single point |
| `CCCCCCCCCCCCOCCOCCOCCOCCOCCOCCOCCOCCOCCO` | CP191 | 12.59 | inhibitor, single point |
| `CCCCCCCCCCCCOCCOCCOCCOCCOCCOCCOCCOCCOCCO` | DIV14 | 6.012 | inhibitor, partial curve |
| `CCCCCCCCCCCCOCCOCCOCCOCCOCCOCCOCCOCCOCCO` | ATS189 | 11.22 | inhibitor, single point |
| `CCCCCCCCCCCCOCCOCCOCCOCCOCCOCCOCCOCCOCCO` | CP238 | 15.85 | inhibitor, single point |
| `CCCCCCCCCCCCOCCOCCOCCOCCOCCOCCOCCOCCOCCO` | SC27B | 10 | inhibitor, single point |
| `CCCCCCCCCCCCOCCOCCOCCOCCOCCOCCOCCOCCOCCO` | PAD | 10 | inhibitor, single point |
| `CCCCCCCCCCCCOCCOCCOCCOCCOCCOCCOCCOCCOCCO` | P93_24 | 11.22 | inhibitor, single point |
| `CCCCCCCCCCCCOCCOCCOCCOCCOCCOCCOCCOCCOCCO` | P94_40 | 10 | inhibitor, single point |
| `CCCCCCCCCCCCOCCOCCOCCOCCOCCOCCOCCOCCOCCO` | N140 | 10 | inhibitor, single point |
| `CCCCCCCCCCCCOCCOCCOCCOCCOCCOCCOCCOCCOCCO` | CP260 | 17.78 | inhibitor, single point |
| `CCCCCCCCCCCCOCCOCCOCCOCCOCCOCCOCCOCCOCCO` | CP247 | 10 | inhibitor, single point |
| `CCCCCCCCCCCCOCCOCCOCCOCCOCCOCCOCCOCCOCCO` | W2 | 19.01 | inhibitor, single point |
| `CCCCCCCCCCCCOCCOCCOCCOCCOCCOCCOCCOCCOCCO` | DIV17 | 16.94 | inhibitor, partial curve, poor fit |
| `CCCCCCCCCCCCOCCOCCOCCOCCOCCOCCOCCOCCOCCO` | TAB165 | 12.59 | inhibitor, single point |
| `CCCCCCCCCCCCOCCOCCOCCOCCOCCOCCOCCOCCOCCO` | CP252 | 17.78 | inhibitor, single point |
| `CCCCCCCCCCCCOCCOCCOCCOCCOCCOCCOCCOCCOCCO` | ECU | 10 | inhibitor, single point |
| `CCCCCCCCCCCCOCCOCCOCCOCCOCCOCCOCCOCCOCCO` | 3D7 | 10 | inhibitor, partial curve |
| `Oc1ccc(OCc2ccccc2)cc1` | CP262 | 4.053 | inhibitor, partial curve, poor fit |
| `Oc1ccc(OCc2ccccc2)cc1` | W2 | 5.103 | inhibitor, partial curve, poor fit |
| `Oc1ccc(OCc2ccccc2)cc1` | ICS | 7.08 | inhibitor, single point |
| `Oc1ccc(OCc2ccccc2)cc1` | 3D7 | 10 | inhibitor, single point |
| `Oc1ccc(OCc2ccccc2)cc1` | CP203 | 8.087 | inhibitor, single point |
| `Oc1ccc(OCc2ccccc2)cc1` | CP305 | 5.103 | inhibitor, partial curve, poor fit |